Consider 1 molecule from PMC12847007.

Results are given in words; binding and its absence hold for the method and conditions named. Binding seen in cells or lysates may run through a third protein. Some results given as binding are weak or reduced against the parent protein; the word gives no strength.

The target in the assay is T1, Signal transducer and activator of transcription 1 (STAT1) (mouse (endogenous in RAW264.7)) (UniProt P42225).
T1 sequence: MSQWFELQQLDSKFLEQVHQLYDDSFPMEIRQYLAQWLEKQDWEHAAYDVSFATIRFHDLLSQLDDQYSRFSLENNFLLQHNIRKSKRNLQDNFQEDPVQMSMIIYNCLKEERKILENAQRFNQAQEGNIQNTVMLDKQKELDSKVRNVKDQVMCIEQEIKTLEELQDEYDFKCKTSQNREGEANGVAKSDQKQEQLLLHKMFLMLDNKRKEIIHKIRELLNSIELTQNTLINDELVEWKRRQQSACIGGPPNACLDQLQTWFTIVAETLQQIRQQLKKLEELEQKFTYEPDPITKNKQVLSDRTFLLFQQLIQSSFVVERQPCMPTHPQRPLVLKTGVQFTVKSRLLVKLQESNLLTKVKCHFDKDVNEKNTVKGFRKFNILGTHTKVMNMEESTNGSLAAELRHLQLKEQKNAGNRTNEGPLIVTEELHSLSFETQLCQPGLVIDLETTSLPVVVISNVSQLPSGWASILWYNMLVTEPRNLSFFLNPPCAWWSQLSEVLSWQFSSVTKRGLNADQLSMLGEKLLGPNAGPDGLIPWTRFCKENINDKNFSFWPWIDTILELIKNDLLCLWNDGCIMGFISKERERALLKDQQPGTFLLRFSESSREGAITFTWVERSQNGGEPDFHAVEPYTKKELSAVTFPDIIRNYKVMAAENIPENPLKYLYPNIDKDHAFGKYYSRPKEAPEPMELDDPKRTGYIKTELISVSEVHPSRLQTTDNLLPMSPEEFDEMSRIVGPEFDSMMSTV
In words: co-IP; RAW264.7 cells treated with LPS + IFN-gamma, with or without oxamate and with or without MG-132; 200 ug total cellular proteins with 2 ug antibody overnight at 4 C, protein A/G magnetic beads; IP with TRIM21 antibody and STAT1 blot, and IP with STAT1 antibody and TRIM21 blot.

B1: Tripartite-motif protein 21 (TRIM21) (protein, UniProt Q62191 1-470)
chain: MSPSTTSKMSLEKMWEEVTCSICLDPMVEPMSIECGHCFCKECIFEVGKNGGSSCPECRQQFLLRNLRPNRHIANMVENLKQIAQNTKKSTQETHCMKHGEKLHLFCEEDGQALCWVCAQSGKHRDHTRVPIEEAAKVYQEKIHVVLEKLRKGKELAEKMEMDLTMQRTDWKRNIDTQKSRIHAEFALQNSLLAQEEQRQLQRLEKDQREYLRLLGKKEAELAEKNQALQELISELERRIRGSELELLQEVRIILERSGSWNLDTLDIDAPDLTSTCPVPGRKKMLRTCWVHITLDRNTANSWLIISKDRRQVRMGDTHQNVSDNKERFSNYPMVLGAQRFSSGKMYWEVDVTQKEAWDLGVCRDSVQRKGQFSLSPENGFWTIWLWQDSYEAGTSPQTTLHIQVPPCQIGIFVDYEAGVVSFYNITDHGSLIYTFSECVFAGPLRPFFNVGFNYSGGNAAPLKLCPLKM
In the case of B1, the binding result is “binds”.
